From patent US20230047413A1
Residue numbers refer to the chain shown, from its start. No constants are given. Whether binding was seen depends on the method and setting. Some entries that bind do so weakly or less than the wild type.

Chains of the proteins cited; added tags and fusions are not shown. Lines headed by an entry give the natural chain unless they say otherwise; changes in a name come on top. A line that says so, or that is headed by a name, gives the form on record, which may keep a tag or linker.
PHF-tau (paired helical filament tau isolated from Alzheimer's disease brain) (P10636, form named): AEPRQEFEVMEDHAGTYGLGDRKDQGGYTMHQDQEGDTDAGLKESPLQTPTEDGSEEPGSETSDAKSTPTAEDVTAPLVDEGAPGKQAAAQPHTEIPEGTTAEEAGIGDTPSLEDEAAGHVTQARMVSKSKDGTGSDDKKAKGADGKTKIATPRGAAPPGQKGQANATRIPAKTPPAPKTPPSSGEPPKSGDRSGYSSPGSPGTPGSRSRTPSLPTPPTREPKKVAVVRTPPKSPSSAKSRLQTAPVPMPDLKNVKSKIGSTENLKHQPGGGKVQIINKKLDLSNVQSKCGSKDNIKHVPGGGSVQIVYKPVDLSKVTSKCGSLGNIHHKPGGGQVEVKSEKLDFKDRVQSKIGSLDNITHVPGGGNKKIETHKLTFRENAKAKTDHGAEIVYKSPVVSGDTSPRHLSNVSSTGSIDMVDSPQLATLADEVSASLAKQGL

B1: B711 (antibody, human IgG1, kappa, V domains shown)
VH: QVQLVESGGGVVQPGRSLRLSCAASGFTFTSYAMSWVRQAPGKGLEWVASITKGGNTYYADSVKGRFTISRDNSKNTLYLQMNSLRAEDTAVYYCARGWGIYGWFAYWGQVTLVTVSS
VL: DIQMTQSPSSLSASVGDRVTITCKASQDINRWLNWFQQKPGKAPKSLIYRANRLLDGVPSRFSGSGSGTDFTLTISSLQPEDFATYYCLQYDEFPLTFGQGTKLEIKR
B2: B809 (antibody, human IgG1, kappa, V domains shown)
VH: B1 VH
VL: B1 VL with W32Y
B3: B333 (antibody, human IgG1, kappa, V domains shown)
VH: B1 VH with T30S, T52S, I101D
VL: B1 VL
B4: B330 (Fab of B711) (Fab, V domains shown)
VH: B1 VH
VL: DIQMTQSPSSLSASVGDRVTITCKASQDINRWLNWFQQKPGKAPKSLIYRANRLLDGVPSRFSGSGSGTDFTLTISSLQPEDFATYYCLQYDEFPLTFGQGTKLEIK
B5: B332 (Fab of B809) (Fab, V domains shown)
VH: B1 VH
VL: B4 VL with W32Y
B6: B331 (Fab of B333) (Fab, V domains shown)
VH: B1 VH with T30S, T52S, I101D
VL: B4 VL

Experiments:
[1] = target: PHF-tau (paired helical filament tau isolated from Alzheimer's disease brain) (human) (UniProt P10636); experiment: SPR (ProteOn), PHF-tau capture-coupled via HT7 on the chip, antibody injected; concentrations not labelled on the sheet
[2] = target: PHF-tau (paired helical filament tau isolated from Alzheimer's disease brain) (human) (UniProt P10636); experiment: SPR (ProteOn), PHF-tau capture-coupled via HT7 on the chip, Fab injected; concentrations not labelled on the sheet

| Binder | binding [1] | binding [2] |
| --- | --- | --- |
| B1 | binds |  |
| B2 | binds |  |
| B3 | binds |  |
| B4 |  | binds |
| B5 |  | binds |
| B6 |  | binds |
